Data: publication PMC8252455, “Prediction of a clinically effective dose of THY1773, a novel V 1B receptor antagonist, based on preclinical data” (Biopharmaceutics & Drug Disposition, 2021)
For part of its entries the source gives two or more results. They are shown here; other results are not. The source may hold further records. Values that stand side by side read as repeated measurements on other runs, samples or individuals; a mean can stand among them.

Test: Phase 1 single ascending dose study of TS-121 capsules
Settings: human, single oral 30 mg, fasted, mean
Procedure: The plasma concentration–time profiles of THY1773 were analyzed by a non‐compartmental analysis with PK analysis software Phoenix WinNonlin® (version 6.1; Certara), and the PK parameters were calculated. The fraction excreted in urine was calculated by dividing the amount of THY1773 excreted in urine by the administered dose.
A first‐in‐human, randomized, double‐blind, placebo‐controlled, adaptive, single‐ascending dose study was conducted to evaluate the safety, tolerability, and PK of single oral doses of TS‐121 capsules in the United States. This study was conducted in accordance with the ethical principles of the Declaration of Helsinki, International Council for Harmonization Good Clinical Practice Guidelines, and the United States Food and Drug Administration Code of Federal Regulations. The study was approved by an institutional ethical review board. All subjects provided written informed consent before participating in the study. […]
Blood samples were collected at predose and 0.25, 0.5, 0.75, 1, 1.5, 2, 3, 4, 6, 8, 10, 12, 24, 36, and 48 h postdose. […] THY1773 plasma and urine concentrations were determined by validated LC‐MS/MS methods. PK parameters were evaluated following the method as described in Section 2.5 PK analysis.

Q: With `CC(C)NC(=O)Cn1c(-c2cccc(Cl)c2)nn(-c2ccc(CCN3CCOCC3)cc2)c1=O` [THY1773] as the compound, how does the t1/2 read?
A: Its t1/2 is 21 h and approximately 21 h and 20.5 h.
